Test results from patent US12053441B2, “Formulations for improving the delivery of hydrophobic agents” (THE ROYAL INSTITUTION FOR THE ADVANCEMENT OF LEARNING / …, priority 2018, dated 2024).
At least one read-out could not be matched to a standard name with certainty.

Experiment: Solubilization of UQ10 in water by test compounds (shaking or sonication, absorbance at 275 nm)
Conditions: mixing by sonication, filtration
Experimental: Solubilization studies. In order to link the surfactant properties of McC1 and its stimulating impact on UQ10 uptake, the solubilization characteristics of McC1 on UQ10 have been determined. First, solubilization test was performed by overnight shaking of a mixture of UQ10 and McC1 in water.
Additional solubilization tests were performed using sonication. Excess amount of UQ10 was mixed with McC1 by sonication for 2 min in water.
Like caspofungin/McC1, surfactin is a cyclic lipopeptide. It is produced from various strains of Bacillus subtilis. Structurally it consists of a peptide chain formed by seven amino acids linked to a β-hydroxyl fatty acid via a lactone bond. It is known for its exceptional surfactant power. […] Then, solubilization test was performed by overnight shaking of a mixture of UQ10 and surfactin in water. The mixture were subjected to brief centrifugation to separate undissolved UQ10 before absorbance of the resultant clear supernatant at 275 nm was measured spectrophotometrically.
Several other surfactants were tested for their ability to solubilize UQ. Briefly, excess amount of UQ10 was mixed with water solution of the tested surfactants using sonication. The resultant suspensions were then filtered through a 0.45 μm syringe filter to remove undissolved UQ10.

## CCCCCCCCCCCCCC[N+](C)(C)C.[Br-] [TTAB, Tetradecyl trimethyl ammonium bromide]
  solubilization of UQ10 in water by the compound: improve the water solubility of UQ10
